“And” between values parts separate entries of the source, which are not always exact repeats. Equal values may be shown once. These results got no clear call from the source, so the numbers are uncertain. Unless noted, calls follow the shape of the dose curve; as a rule, active = well fitted curve in the direction sought with a large enough effect in the repeat runs; inconclusive = weak or mixed curves; inactive = no such curve, though single readings can be large; an effect the other way counts as inactive or inconclusive.
How the values were obtained:
[1] = qHTS assay for small molecule agonists of the p53 signaling pathway - cell viability (AID 651633; calls by dose curve; also: potency is read from the fitted curve at half-maximal effect; nearly all actives have a fitted effect of over 30% in size); details: p53RE-bla HCT-116 viability, ATP luminescence, 16 h
How it was run: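 p53RE-bla cells, seeded at 4,000 per well and rested 5 h at 37 C/5% CO2, received compounds in DMSO for 16 h at 37 C. CellTiter-Glo was then added, and luminescence was read after 30 min at room temperature to gauge cytotoxicity.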

The chains behind the UniProt entries cited, without tags or fusion partners.
UniProt P04150, whole entry: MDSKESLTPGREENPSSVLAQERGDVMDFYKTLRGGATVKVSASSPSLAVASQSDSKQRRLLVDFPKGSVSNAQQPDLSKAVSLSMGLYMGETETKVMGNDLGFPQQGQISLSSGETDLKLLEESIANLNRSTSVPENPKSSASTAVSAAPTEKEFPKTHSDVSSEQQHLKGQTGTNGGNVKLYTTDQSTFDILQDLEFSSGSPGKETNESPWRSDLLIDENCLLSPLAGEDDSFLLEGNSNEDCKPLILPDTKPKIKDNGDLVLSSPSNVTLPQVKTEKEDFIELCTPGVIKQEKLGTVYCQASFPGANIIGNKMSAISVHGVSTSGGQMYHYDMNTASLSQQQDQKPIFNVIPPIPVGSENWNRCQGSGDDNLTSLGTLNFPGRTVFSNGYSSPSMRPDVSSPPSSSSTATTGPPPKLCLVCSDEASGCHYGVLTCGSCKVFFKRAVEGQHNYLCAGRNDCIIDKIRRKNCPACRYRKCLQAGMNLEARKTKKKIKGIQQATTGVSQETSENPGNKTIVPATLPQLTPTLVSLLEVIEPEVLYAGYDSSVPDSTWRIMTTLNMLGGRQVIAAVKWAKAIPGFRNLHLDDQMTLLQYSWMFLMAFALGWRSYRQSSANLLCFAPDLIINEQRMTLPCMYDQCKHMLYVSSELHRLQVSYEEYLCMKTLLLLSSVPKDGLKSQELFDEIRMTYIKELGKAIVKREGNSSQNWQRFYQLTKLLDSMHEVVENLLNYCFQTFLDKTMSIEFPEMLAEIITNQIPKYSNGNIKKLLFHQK
UniProt P11511, whole entry: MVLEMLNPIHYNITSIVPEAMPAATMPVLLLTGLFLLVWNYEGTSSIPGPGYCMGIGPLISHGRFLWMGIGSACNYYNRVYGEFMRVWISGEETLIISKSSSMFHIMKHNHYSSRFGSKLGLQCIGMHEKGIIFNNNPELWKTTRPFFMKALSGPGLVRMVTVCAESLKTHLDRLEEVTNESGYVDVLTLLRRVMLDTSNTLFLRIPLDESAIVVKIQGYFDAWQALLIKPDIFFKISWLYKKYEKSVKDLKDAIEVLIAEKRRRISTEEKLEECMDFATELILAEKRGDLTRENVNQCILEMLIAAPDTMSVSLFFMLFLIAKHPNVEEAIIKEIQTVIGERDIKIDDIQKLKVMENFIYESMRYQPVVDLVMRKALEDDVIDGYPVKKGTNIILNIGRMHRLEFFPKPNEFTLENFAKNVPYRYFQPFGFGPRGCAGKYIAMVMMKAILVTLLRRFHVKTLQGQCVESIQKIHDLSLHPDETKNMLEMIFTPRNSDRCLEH
UniProt P37231, whole entry: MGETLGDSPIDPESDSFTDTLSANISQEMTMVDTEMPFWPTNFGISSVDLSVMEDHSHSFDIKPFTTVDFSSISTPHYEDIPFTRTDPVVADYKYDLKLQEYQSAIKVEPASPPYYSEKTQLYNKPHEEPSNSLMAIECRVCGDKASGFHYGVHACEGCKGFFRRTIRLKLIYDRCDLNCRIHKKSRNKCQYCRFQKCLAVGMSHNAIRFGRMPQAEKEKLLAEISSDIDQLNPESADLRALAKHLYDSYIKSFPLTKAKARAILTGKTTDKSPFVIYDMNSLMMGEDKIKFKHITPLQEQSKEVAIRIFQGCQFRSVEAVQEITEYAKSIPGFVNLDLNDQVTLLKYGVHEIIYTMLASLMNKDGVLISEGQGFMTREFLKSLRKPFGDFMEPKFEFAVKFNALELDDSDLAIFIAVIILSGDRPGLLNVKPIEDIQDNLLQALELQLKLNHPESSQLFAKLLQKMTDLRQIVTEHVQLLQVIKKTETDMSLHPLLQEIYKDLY
UniProt Q03181, whole entry: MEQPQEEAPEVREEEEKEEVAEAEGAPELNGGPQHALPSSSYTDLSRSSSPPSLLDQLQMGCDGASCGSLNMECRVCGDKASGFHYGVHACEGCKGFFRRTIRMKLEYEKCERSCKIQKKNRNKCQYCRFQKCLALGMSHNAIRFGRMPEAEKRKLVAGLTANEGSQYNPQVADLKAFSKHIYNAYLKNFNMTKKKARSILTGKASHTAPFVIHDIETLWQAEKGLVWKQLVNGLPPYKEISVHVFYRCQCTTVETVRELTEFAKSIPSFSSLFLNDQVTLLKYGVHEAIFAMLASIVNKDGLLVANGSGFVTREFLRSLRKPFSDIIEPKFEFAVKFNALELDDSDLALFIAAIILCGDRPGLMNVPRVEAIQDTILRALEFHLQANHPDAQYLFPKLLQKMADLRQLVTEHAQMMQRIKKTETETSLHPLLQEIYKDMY
UniProt P19793, whole entry: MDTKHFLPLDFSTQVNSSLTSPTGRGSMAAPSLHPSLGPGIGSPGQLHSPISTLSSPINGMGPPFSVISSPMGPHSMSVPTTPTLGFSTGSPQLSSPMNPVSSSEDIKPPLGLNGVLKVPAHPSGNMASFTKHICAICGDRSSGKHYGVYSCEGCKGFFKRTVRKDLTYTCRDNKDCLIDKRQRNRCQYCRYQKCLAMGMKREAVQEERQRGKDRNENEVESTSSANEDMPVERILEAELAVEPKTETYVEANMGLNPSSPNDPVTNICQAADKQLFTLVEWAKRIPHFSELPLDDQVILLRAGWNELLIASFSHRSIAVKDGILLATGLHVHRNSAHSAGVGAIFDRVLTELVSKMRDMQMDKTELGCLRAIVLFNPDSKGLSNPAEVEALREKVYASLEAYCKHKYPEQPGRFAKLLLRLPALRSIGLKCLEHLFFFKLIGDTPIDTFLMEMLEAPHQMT

[2] = target: Glucocorticoid receptor (Homo sapiens) (UniProt P04150); assay: qHTS assay to identify small molecule agonists of the glucocorticoid receptor (GR) signaling pathway (AID 720691; active = well fitted activation curve with a large enough effect in the signal ratio in the repeat runs, not every such curve was filed as active; inconclusive = weak or mixed curves, or effect the other way; inactive = no such curve, though single readings can be large or run the other way; the % refers to the signal ratio; also: % is scaled to controls: 0 for no effect and ±100 for the full control effect); details: GR-bla HeLa, beta-lactamase reporter ratio, 18 h; activation: at 62.4 µM (top of the series)
[3] = target: Glucocorticoid receptor (Homo sapiens) (UniProt P04150); assay: qHTS assay to identify small molecule antagonists of the glucocorticoid receptor (GR) signaling pathway (AID 720692; active = well fitted inhibition curve with a large enough effect in the signal ratio in the repeat runs, not every such curve was filed as active; inconclusive = weak or mixed curves, or effect the other way; inactive = no such curve, though single readings can be large or run the other way; the % refers to the signal ratio; also: potency is read from the fitted curve at half-maximal effect); details: GR-bla HeLa, beta-lactamase FRET ratio, dexamethasone-stimulated, 18 h; activity change, negative = inhibition: at 58.5 µM (top of the series)
[4] = qHTS assay to identify small molecule antagonists of the glucocorticoid receptor (GR) signaling pathway - cell viability counter screen (AID 720693); details: GR-bla HeLa viability, CellTiter-Glo luminescence, 18 h; with 5 nM dexamethasone present; also: potency is read from the fitted curve at half-maximal effect; nearly all actives have a fitted effect of over 55% in size
[5] = qHTS assay to identify small molecule antagonists of the androgen receptor (AR) signaling pathway - cell viability counter screen (AID 743033; also: potency is read from the fitted curve at half-maximal effect; nearly all actives have a fitted effect of over 45% in size); details: AR-bla HEK293 viability, CellTiter-Glo luminescence, 16 h
[6] = qHTS assay to identify small molecule antagonists of the androgen receptor (AR) signaling pathway using the MDA cell line - cell viability counter screen (AID 743041; also: potency is read from the fitted curve at half-maximal effect; nearly all actives have a fitted effect of over 45% in size); details: MDA-kb2 viability, CellTiter-Fluor, 16 h, cells co-treated with R1881 androgen agonist; viability change, negative = cytotoxic: at 70.3 µM (top of the series)
How it was run: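 qHTS viability read-out; MDA-kb2 AR-luc; R1881-stimulated; 16 h exposure at 37C, 0% CO2; CellTiter-Fluor, 30 min; fluorescence intensity.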

[7] = system: thyroid hormone receptor (rat, GH3 cells); assay: qHTS assay to identify small molecule agonists of the thyroid receptor (TR) signaling pathway (AID 743066; calls by dose curve; also: % is scaled to controls: 0 for no effect and ±100 for the full control effect); details: GH3.TRE-Luc cells, TR agonist luciferase, 24 h; activation: at 83.9 µM (top of the series)
[8] = qHTS assay to identify small molecule antagonists of the estrogen receptor alpha (ER-alpha) signaling pathway - cell viability counter screen (AID 743074; calls by dose curve;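 also: HEK293 cells carrying ER-alpha-UAS-bla reporter stimulated with 17beta-estradiol; potency is read from the fitted curve at half-maximal effect; nearly all actives have a fitted effect of over 45% in size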); details: ERalpha-bla HEK293 viability, CellTiter-Glo luminescence, 18 h
[9] = qHTS assay to identify small molecule antagonists of the estrogen receptor alpha (ER-alpha) signaling pathway using the BG1 cell line (AID 743080; calls by dose curve;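 also: BG1 cells stimulated with 17beta-estradiol alongside compound; potency is read from the fitted curve at half-maximal effect; nearly all actives have a fitted effect of over 25% in size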); details: BG1Luc4E2 ERE-luciferase antagonist mode, luminescence; activity change, negative = inhibition: at 70.3 µM (top of the series)
How it was run: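 BG1-Luc-4E2 cells (endogenous full-length ER-alpha, stable 4×ERE-luciferase) were starved 5 days in phenol-red-free medium with 10% charcoal-stripped FBS, plated 24 h, then given compound plus 17beta-estradiol for 21.5 h at 37 C; ONE-Glo luminescence read after 30 min.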

Aromatase (Homo sapiens) = Aromatase (Homo sapiens) (UniProt P11511); assay: qHTS assay to identify aromatase inhibitors (AID 743083); details: MCF-7 aro ERE, testosterone-driven ERE luciferase, 24 h; also: potency is read from the fitted curve at half-maximal effect; nearly all actives have a fitted effect of over 55% in size
[10] = qHTS assay to identify small molecule that activate the aryl hydrocarbon receptor (AhR) signaling pathway - cell viability counter screen (AID 743086); details: HepG2-AhR-luc viability, CellTiter-Fluor, 24 h; also: potency is read from the fitted curve at half-maximal effect; nearly all actives have a fitted effect of over 45% in size
How it was run: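 HepG2-AhR-luc (HG2L7.5c1) cells, 4000/well, were preincubated 5 h at 37C, exposed to compound in qHTS format for 24 hr at 37C, then given CellTiter-Fluor for 30 min; viability was read as fluorescence in the reporter wells.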

[11] = target: Peroxisome proliferator-activated receptor gamma (Homo sapiens) (UniProt P37231); assay: qHTS assay to identify small molecule agonists of the peroxisome proliferator-activated receptor gamma (PPARg) signaling pathway (AID 743094; active = well fitted activation curve with a large enough effect in the signal ratio in the repeat runs, not every such curve was filed as active; inconclusive = weak or mixed curves, or effect the other way; inactive = no such curve, though single readings can be large or run the other way; the % refers to the signal ratio; also: potency is read from the fitted curve at half-maximal effect); details: HEK293H PPARg-UAS-bla, beta-lactamase FRET ratio, 17 h
How it was run: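 Cell-based bla reporter, HEK293H background, PPARg-driven UAS. Pre-incubation 5 h, 37C, 5% CO2. Compound 17 h, 37C. Substrate 1 h RT; fluorescence.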

[12] = target: Peroxisome proliferator-activated receptor gamma (Homo sapiens) (UniProt P37231); assay: qHTS assay to identify small molecule antagonists of the peroxisome proliferator-activated receptor gamma (PPARg) signaling pathway (AID 743191; calls by dose curve; also: potency is read from the fitted curve at half-maximal effect; nearly all actives have a fitted effect of over 30% in size); details: HEK293H PPARg-UAS-bla, beta-lactamase ratio, antagonist, 17 h; ratio activity, negative = inhibition: at 81.1 µM (top of the series)
How it was run: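 GeneBLAzer PPARg UAS-bla HEK293H cells carrying a UAS-driven beta-lactamase reporter were plated at 3000 cells/well, preincubated 5 h at 37C, then given compound for 17 h at 37C; LiveBLAzer B/G FRET substrate was read after 1 h at room temperature.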

[13] = qHTS assay to identify small molecule antagonists of the peroxisome proliferator-activated receptor gamma (PPARg) signaling pathway - cell viability counter screen (AID 743194); details: PPARg-bla HEK293H viability, CellTiter-Glo luminescence, 17 h; co-treated with 50 nM rosiglitazone; also: potency is read from the fitted curve at half-maximal effect; nearly all actives have a fitted effect of over 55% in size
How it was run: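 PPARg-UAS-bla HEK293H cells were plated, rested 5 h at 37 C, then treated with compounds plus rosiglitazone (50 nM final) for 17 h at 37 C; viability was then read by CellTiter-Glo luminescence after 30 min at room temperature.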

[14] = qHTS assay for small molecule activators of the heat shock response signaling pathway (AID 743210; active = well fitted activation curve with a large enough effect in the signal ratio in the repeat runs, with a control signal flat, not every such curve was filed as active; inconclusive = weak or mixed curves; the % refers to the signal ratio; also: potency is read from the fitted curve at half-maximal effect); details: HeLa HSE-bla reporter, beta-lactamase ratio, 5 h
How it was run: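 Activation of heat shock element-controlled beta-lactamase expression is measured in HeLa cells by LiveBLAzer FRET fluorescence, with compound exposure lasting 5 h at 37 C and substrate loading 2.5 h at room temperature.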

[15] = qHTS assay to identify small molecule agonists of the peroxisome proliferator-activated receptor delta (PPARd) signaling pathway - cell viability counter screen (AID 743211); details: PPARd-bla HEK293H viability, CellTiter-Glo luminescence, 17 h; also: potency is read from the fitted curve at half-maximal effect; nearly all actives have a fitted effect of over 55% in size
How it was run: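 PPARd-bla HEK293H cells (3000/well) were pre-incubated 5 h at 37 C, then exposed to compound for 17 h at 37 C. After 2 h with LiveBLAzer substrate, CellTiter-Glo was added to the same wells; luminescence read after 30 min at room temperature.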

[16] = target: Peroxisome proliferator-activated receptor delta (Homo sapiens) (UniProt Q03181); assay: qHTS assay to identify small molecule agonists of the peroxisome proliferator-activated receptor delta (PPARd) signaling pathway (AID 743212; calls by dose curve; also: potency is read from the fitted curve at half-maximal effect); details: HEK293H PPARd-UAS-bla, beta-lactamase FRET ratio, 17 h
How it was run: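 Cells expressing a UAS-driven beta-lactamase reporter (PPARd-bla HEK293H) were given test compounds after a 5 h settle and kept at 37 C. Reporter activity was then measured as FRET fluorescence using LiveBLAzer B/G substrate.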

[17] = qHTS assay to identify small molecule antagonists of the peroxisome proliferator-activated receptor delta (PPARd) signaling pathway - cell viability counter screen (AID 743213); details: PPARd-bla HEK293H viability, CellTiter-Glo luminescence, 17 h; also: potency is read from the fitted curve at half-maximal effect; nearly all actives have a fitted effect of over 50% in size
How it was run: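 PPARd-bla HEK293H cells were treated with compounds plus agonist L165041 (300 nM final) for 17 h at 37 C. Viability was then read in the same wells by CellTiter-Glo luminescence after 30 min at room temperature.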

[18] = target: Peroxisome proliferator-activated receptor delta (Homo sapiens) (UniProt Q03181); assay: qHTS assay to identify small molecule antagonists of the peroxisome proliferator-activated receptor delta (PPARd) signaling pathway (AID 743215; active = well fitted inhibition curve with a large enough effect in the signal ratio in the repeat runs, not every such curve was filed as active; inconclusive = weak or mixed curves, or effect the other way; inactive = no such curve, though single readings can be large or run the other way; the % refers to the signal ratio); details: HEK293H PPARd-UAS-bla, beta-lactamase FRET ratio, antagonist, 17 h
How it was run: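 Fluorescence from cleaved LiveBLAzer B/G FRET substrate (2 h, room temperature) reports PPARd-driven beta-lactamase in HEK293H UAS-bla cells. Cells had been treated 17 h at 37 C with compound plus 300 nM final L165041.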

[19] = qHTS assay to identify small molecule agonists of the farnesoid-X-receptor (FXR) signaling pathway - cell viability counter screen (AID 743218); details: FXR-bla HEK293T viability, CellTiter-Glo luminescence, 16 h
How it was run: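 Readout: CellTiter-Glo luminescence, 30 min RT, multiplexed after the FXR-bla FRET reading. HEK 293T FXR-UAS-bla cells received compound 5 h post-plating and were incubated 16 h at 37 C.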

[20] = qHTS assay to identify small molecule antagonists of the vitamin D receptor (VDR) signaling pathway - cell viability counter screen (AID 743225); details: VDR-bla HEK293T viability, CellTiter-Glo luminescence, 16 h; also: potency is read from the fitted curve at half-maximal effect; nearly all actives have a fitted effect of over 50% in size
How it was run: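 VDR-UAS-bla HEK 293T cells were plated and incubated 4 h at 37C, then dosed with compound plus 3 nM (final) 1-alpha,25-dihydroxyvitamin D3 for 16 h. After the 2 h beta-lactamase read, viability in the same wells was read as CellTiter-Glo luminescence after 30 min at room temperature.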

[21] = qHTS assay to identify small molecule agonists of the endoplasmic reticulum stress response signaling pathway (AID 1159516; active = well fitted activation curve with a large enough effect in the signal ratio in the repeat runs, not every such curve was filed as active; inconclusive = weak or mixed curves, or effect the other way; the % refers to the signal ratio; also: potency is read from the fitted curve at half-maximal effect); details: ESRE-bla HeLa, ER stress beta-lactamase reporter, 5 h
How it was run: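 Beta-lactamase expression from the ER stress response element in HeLa reporter cells is quantified with the LiveBLAzer B/G FRET substrate, read at 405 nm excitation after 2 hr at room temperature, following 5 hr compound treatment at 37 C.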

[22] = qHTS assay to identify small molecule agonists of the endoplasmic reticulum stress response signaling pathway - cell viability counter screen (AID 1159517; calls by dose curve; also: potency is read from the fitted curve at half-maximal effect; nearly all actives have a fitted effect of over 50% in size); details: ESRE-bla HeLa viability, CellTiter-Glo luminescence, 5 h
How it was run: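 Cpd-treated ESRE-bla HeLa (5 hr, 37 C) → LiveBLAzer 2 hr RT → CellTiter-Glo 30 min RT → luminescence.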

[23] = target: Nuclear receptor ROR-gamma (Homo sapiens) (UniProt P51449); assay: qHTS assay to identify small molecule antagonists of the retinoid-related orphan receptor gamma (ROR-gamma) signaling pathway (AID 1159521; also: potency is read from the fitted curve at half-maximal effect; nearly all actives have a fitted effect of over 50% in size); details: Tet-on RORgamma CHO cells, RORE-luciferase, 16 h
[24] = qHTS assay to identify small molecule agonists of the AP-1 signaling pathway (AID 1159526; calls by dose curve; also: potency is read from the fitted curve at half-maximal effect); details: ME-180 (cervical carcinoma) AP-1-bla reporter, beta-lactamase FRET ratio, 5 h
[25] = target: Retinoic acid receptor RXR-alpha (Homo sapiens) (UniProt P19793); assay: qHTS assay to identify small molecule agonists of the RXR signaling pathway (AID 1159527; calls by dose curve; also: nearly all actives have a fitted effect of over 35% in size; also: potency is read from the fitted curve at half-maximal effect; as to activation: % is scaled to controls: 0 for no effect and ±100 for the full control effect); details: HEK293T RXRa-UAS-bla, beta-lactamase ratio, 16 h; activation: at 35.3 µM (top of the series)
How it was run: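 GeneBLAzer RXR-alpha-UAS-bla HEK 293T cells in 2% charcoal-stripped FBS medium were exposed to compounds for 16 hr at 37 C in agonist mode. Beta-lactamase reporter read as 460/530 nm FRET ratio after 2 hr substrate loading.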

[26] = qHTS assay to identify small molecule antagonists of the retinoid acid receptor (RAR) signaling pathway - cell viability counter screen (AID 1159551); details: C3RL4 cells viability, ATP luminescence (CellTiter-Glo), 6 h; also: potency is read from the fitted curve at half-maximal effect; nearly all actives have a fitted effect of over 35% in size
How it was run: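 Viability of C3RL4 cells is quantified from ATP by luminescence after 6 h treatment at 37 C with compounds and 1 uM retinol.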

[27] = qHTS assay to identify small molecule antagonists of the retinoic acid receptor (RAR) signaling pathway (AID 1159552); details: C3RL4 RARE luciferase reporter, retinol-stimulated, 6 h
How it was run: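 Retinol signaling pathway inhibitors screened in C3RL4 RARE-luciferase reporter cells seeded overnight at 37 C, then compounds added with 1 uM (final) retinol as pathway substrate. After 6 hr at 37 C, luciferase luminescence read after 30 min at room temperature.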

CN(CCCl)CCCl
inconclusive: Potency [1] 27.3 µM | activation [2] 10.2% | Potency [3] 19 µM and 19.5 µM | Potency [4] 61.5 µM | Potency [5] 48.9 µM | Potency [6] 27.8 µM | activation [7] -8.57% | Potency [8] 61.5 µM | Potency [9] 54.4 µM | Potency (Aromatase (Homo sapiens)) 33.5 µM | Potency [10] 33.5 µM | Potency [11] 27.5 µM | Potency [12] 54.8 µM | Potency [13] 54.8 µM | Potency [14] 43.6 µM | Potency [15] 18.8 µM | Potency [16] 54.8 µM | Potency [17] 54.8 µM | Potency [18] 54.8 µM | Potency [19] 0.376 µM | Potency [20] 54.8 µM | Potency [21] 12.3 µM and 19 µM | Potency [22] 61.5 µM | Potency [23] 33.5 µM | Potency [24] 19.5 µM | Potency [25] 54.8 µM | activation [25] -21.8% | Potency [26] 29.8 µM | Potency [27] 29.8 µM

Reference: PubChem BioAssay (Tox21)
